Measured values as given in patent publication US20090203538A1.

T1: ITGA3 (integrin alpha 3) (Homo sapiens (Human)) (UniProt P26006)
T1 sequence: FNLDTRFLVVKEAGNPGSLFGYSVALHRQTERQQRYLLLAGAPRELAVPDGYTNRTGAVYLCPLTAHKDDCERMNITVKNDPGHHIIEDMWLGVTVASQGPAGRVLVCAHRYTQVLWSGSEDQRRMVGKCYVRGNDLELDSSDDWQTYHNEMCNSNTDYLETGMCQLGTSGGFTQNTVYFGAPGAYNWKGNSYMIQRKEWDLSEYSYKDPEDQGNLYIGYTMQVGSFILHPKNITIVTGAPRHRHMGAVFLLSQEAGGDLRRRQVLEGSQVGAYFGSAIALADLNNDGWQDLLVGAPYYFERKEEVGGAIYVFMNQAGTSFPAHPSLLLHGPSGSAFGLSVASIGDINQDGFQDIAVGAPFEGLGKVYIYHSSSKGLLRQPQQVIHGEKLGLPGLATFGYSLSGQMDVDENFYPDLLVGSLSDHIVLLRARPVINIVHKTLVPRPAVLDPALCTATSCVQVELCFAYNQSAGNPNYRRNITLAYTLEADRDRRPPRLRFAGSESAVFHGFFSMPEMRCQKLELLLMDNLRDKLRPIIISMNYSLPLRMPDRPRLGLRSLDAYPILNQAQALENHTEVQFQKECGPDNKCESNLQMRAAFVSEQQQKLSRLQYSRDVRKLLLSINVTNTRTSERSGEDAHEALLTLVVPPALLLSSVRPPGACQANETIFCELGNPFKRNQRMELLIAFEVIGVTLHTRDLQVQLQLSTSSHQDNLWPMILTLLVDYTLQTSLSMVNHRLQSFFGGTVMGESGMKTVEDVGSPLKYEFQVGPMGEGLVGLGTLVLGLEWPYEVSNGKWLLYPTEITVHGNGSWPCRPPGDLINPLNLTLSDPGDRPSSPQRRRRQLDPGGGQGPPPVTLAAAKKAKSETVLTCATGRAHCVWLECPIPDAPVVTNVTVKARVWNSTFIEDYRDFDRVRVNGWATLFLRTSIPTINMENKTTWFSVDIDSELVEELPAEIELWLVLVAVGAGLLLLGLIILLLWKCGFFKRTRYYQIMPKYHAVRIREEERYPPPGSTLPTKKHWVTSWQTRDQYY

B1: 015-003 antibody (antibody, V domains shown)
VH: QVQLVQSGAEVKKPGASVKVSCKASGYTFTSYGISWVRQAPGQGLEWMGWISAYNGNTNYAQKLQGRVTMTTDTSTSTAYMELRSLRSDDTAVYYCATAASLKYYYDSSGYYYWGQGTLVTVSR
VL: SSELTQDPAVSVALGQTVRITCQGDSLRSYYASWYQQKPGQAPVLVISGKNNRPSGIPDRFSGSSSGDTASLTITGAQAEDEANYYCNSRDSSGYPSWVFGGGTKLTVLG
B2: 057-091 antibody (antibody, V domains shown)
VH: QVQLVQSGAEVKKTGSSVKVSCKASGGSFSSSAISWVRQAPGHGLEWLGGIIPTFGTPNHAQKFQGRVTITADESTGTAYMELSGLRSEDTAVYYCARAHCGGGRCYDYTDAFHFWGQGTMVTVSR
VL: SYELTQPPSVSVAPGKTARITCGGDNIGNRSVHWYQQKPGQAPVLLIYYDSDRPSGIPKRFSGSNSGNTATLTISRVEAGDEADYYCQVWDSTSDHVVFGGGTKLTVLR

Columns and labels:
[1] = molecular target: T1, ITGA3 (integrin alpha 3) (Homo sapiens (Human)); test: immunoprecipitation from biotin-labelled cell lysate with pp type antibody, mass spectrometry
[2] = molecular target: HER1 (Homo sapiens (Human)); test: as above

Binder | binding [1] | binding [2]
B1 | binds | –
B2 | – | binds

No constants are given. Whether binding was seen depends on the method and setting. In cells and extracts the contact can be indirect. A yes stands for co-enrichment or nearness to the bait. Other partners may have been found.
